Results are given in words; binding and its absence hold for the method and conditions named. In cells and extracts the contact can be indirect. Some entries that bind do so weakly or less than the wild type.
Experiments:
[1] = target: T1, TMEM43 (endogenous, mouse brain) (mouse (endogenous in mouse brain)) (UniProt Q9DBS1); experiment: proximity ligation
T1 sequence: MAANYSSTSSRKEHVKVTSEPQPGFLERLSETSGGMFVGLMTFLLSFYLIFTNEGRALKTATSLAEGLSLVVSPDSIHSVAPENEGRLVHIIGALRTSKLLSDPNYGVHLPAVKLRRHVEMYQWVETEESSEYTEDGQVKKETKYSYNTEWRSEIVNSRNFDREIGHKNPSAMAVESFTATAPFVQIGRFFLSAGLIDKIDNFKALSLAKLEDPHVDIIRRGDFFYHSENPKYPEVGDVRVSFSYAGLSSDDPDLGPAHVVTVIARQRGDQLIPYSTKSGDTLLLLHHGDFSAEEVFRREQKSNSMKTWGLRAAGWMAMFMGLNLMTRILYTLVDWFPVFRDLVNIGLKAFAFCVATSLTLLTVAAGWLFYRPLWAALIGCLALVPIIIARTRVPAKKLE

Amino acid sequences for entries named in this document (tags omitted).
UniProt P23242: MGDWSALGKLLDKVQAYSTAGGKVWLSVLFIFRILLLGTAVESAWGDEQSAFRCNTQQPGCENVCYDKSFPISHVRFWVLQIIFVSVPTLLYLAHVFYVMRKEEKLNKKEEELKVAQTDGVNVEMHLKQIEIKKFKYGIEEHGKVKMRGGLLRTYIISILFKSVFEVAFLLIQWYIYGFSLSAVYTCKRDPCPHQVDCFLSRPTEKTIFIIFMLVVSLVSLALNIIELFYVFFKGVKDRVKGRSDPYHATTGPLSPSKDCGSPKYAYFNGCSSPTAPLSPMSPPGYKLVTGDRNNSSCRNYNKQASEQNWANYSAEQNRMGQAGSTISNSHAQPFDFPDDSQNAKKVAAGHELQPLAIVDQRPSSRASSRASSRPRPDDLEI
UniProt P17302: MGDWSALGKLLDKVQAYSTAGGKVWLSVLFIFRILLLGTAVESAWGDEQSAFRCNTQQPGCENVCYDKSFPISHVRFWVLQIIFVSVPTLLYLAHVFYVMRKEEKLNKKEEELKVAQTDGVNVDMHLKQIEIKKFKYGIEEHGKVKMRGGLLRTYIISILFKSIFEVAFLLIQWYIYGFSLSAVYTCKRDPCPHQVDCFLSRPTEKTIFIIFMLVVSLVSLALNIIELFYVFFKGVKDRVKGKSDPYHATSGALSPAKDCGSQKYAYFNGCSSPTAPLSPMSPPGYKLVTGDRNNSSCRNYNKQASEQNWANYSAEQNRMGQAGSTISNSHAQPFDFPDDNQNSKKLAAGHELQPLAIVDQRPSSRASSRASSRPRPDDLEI

[2] = target: T1, TMEM43 (endogenous, mouse brain) (mouse (endogenous in mouse brain)); experiment: co-IP
[3] = target: T2, TMEM43 (human, expressed in the heterologous expression system) (human) (UniProt Q9BTV4); experiment: co-IP
T2 sequence: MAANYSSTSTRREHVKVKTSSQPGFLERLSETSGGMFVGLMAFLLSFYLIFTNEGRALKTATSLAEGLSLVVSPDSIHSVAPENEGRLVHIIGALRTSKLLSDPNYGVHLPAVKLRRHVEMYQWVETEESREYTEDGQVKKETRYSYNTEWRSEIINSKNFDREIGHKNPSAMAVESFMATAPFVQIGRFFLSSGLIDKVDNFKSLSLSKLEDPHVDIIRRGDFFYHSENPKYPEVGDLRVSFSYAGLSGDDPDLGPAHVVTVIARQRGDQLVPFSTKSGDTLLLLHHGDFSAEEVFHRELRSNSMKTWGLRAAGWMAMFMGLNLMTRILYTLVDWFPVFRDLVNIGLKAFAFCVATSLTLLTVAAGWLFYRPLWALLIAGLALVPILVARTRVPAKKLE

Substance	binding [1]	binding [2]	binding [3]
Connexin 43 (endogenous, mouse brain) (from UniProt P23242 1-382)	binds	binds	–
Connexin 43 (expressed in the heterologous expression system) (from UniProt P17302 1-382)	–	–	binds

From publication doi:10.1101/2022.11.08.515259
